Results deposited as PubChem BioAssay AID1259405 (NCATS, 2018)

- Aim: 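Knock-downs that lift recombinant protein yield in hamster ovary cells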 (primary screen)
- Cell system: Chinese hamster CHO-K1 ovary cells with stable secreted eGFP expression
- Reagents: single siRNA against mouse genes, 0.8 pmol siRNA per well (2 µl of 400 nM stock)
- Time to read-out: 3 days
- Read-out: 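Per-well intracellular GFP measured by laser scanning cytometry, plus viability from ATP luminescence, each relative to plate median of non-targeting control wells, in %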
- Scale: GFP, % of control: higher = more GFP per well, higher productivity; viability (ATP), % of control: higher = more viable cells (more ATP)
- Hit rule: 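a knock-down is called active if GFP reaches 120% or more of non-targeting control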
The deposit covers about 50,000 reagents; this is an unselected part. Over the whole deposit, about 4,000 (8%) got an active call. 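Mouse siRNA library applied to hamster cells; one well for each siRNA.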 Entries without a mark were called inactive. The numbers tell different reagents against one gene apart. No sequences are given here.

Knock-down of Mdfi #1 gave: GFP, % of control 68.6; viability (ATP), % of control 67.4.
After knock-down of Mdfi #2, the screen gave GFP, % of control 67.9; viability (ATP), % of control 77.7.
Mdfi #3 gave GFP, % of control 62.1; viability (ATP), % of control 66.7.
Against Tfeb #1 the deposit lists GFP, % of control 70.8; viability (ATP), % of control 83.3.
Tfeb #2 showed GFP, % of control 59.1; viability (ATP), % of control 73.4.
Silencing of Tfeb #3 came out at: GFP, % of control 88.5; viability (ATP), % of control 101.
Wdfy2 #1 scored GFP, % of control 46.7; viability (ATP), % of control 57.3.
Depletion of Wdfy2 #2 came out at: GFP, % of control 38.7; viability (ATP), % of control 41.5.
After knock-down of Wdfy2 #3, the record shows GFP, % of control 75.7; viability (ATP), % of control 87.9.
Depletion of Or1j16 #1 gave: GFP, % of control 80.1; viability (ATP), % of control 63.1.
For Or1j16 #2 the deposit lists GFP, % of control 97.5; viability (ATP), % of control 82.1.
With knock-down of Or1j16 #3, the record shows GFP, % of control 54.6; viability (ATP), % of control 50.1.
Against H3c15 #1, the entry reads GFP, % of control 64.1; viability (ATP), % of control 28.9.
With knock-down of H3c15 #2, the screen gave GFP, % of control 108; viability (ATP), % of control 123.
For H3c15 #3, the entry reads GFP, % of control 50.5; viability (ATP), % of control 76.1.
Ipcef1 #1 gave GFP, % of control 109; viability (ATP), % of control 92.7.
Silencing of Ipcef1 #2 came out at: GFP, % of control 46.2; viability (ATP), % of control 60.2.
For Ipcef1 #3, the entry reads GFP, % of control 147 (active); viability (ATP), % of control 130.
Parn #1 gave GFP, % of control 49.5; viability (ATP), % of control 71.8.
Knock-down of Parn #2 resulted in: GFP, % of control 133 (active); viability (ATP), % of control 88.1.
After knock-down of Ddx46 #1, the record shows GFP, % of control 71.4; viability (ATP), % of control 59.2.
Depletion of Ddx46 #2 gave: GFP, % of control 72.3; viability (ATP), % of control 61.8.
Silencing of Ddx46 #3 resulted in: GFP, % of control 62.1; viability (ATP), % of control 57.9.
With knock-down of Gulp1 #1, the screen gave GFP, % of control 66; viability (ATP), % of control 84.7.
After knock-down of Gulp1 #2 the results were GFP, % of control 130 (active); viability (ATP), % of control 126.
For Gulp1 #3 the deposit lists GFP, % of control 73.9; viability (ATP), % of control 103.
For Foxl1 #1 the deposit lists GFP, % of control 76.8; viability (ATP), % of control 106.
Foxl1 #2 gave GFP, % of control 92.6; viability (ATP), % of control 96.3.
Dab1 #1 gave GFP, % of control 57; viability (ATP), % of control 92.2.
With knock-down of Dab1 #2, the record shows GFP, % of control 56.3; viability (ATP), % of control 68.2.
For Ang3 #1 the deposit lists GFP, % of control 105; viability (ATP), % of control 74.5.
Ang3 #2 showed GFP, % of control 66.3; viability (ATP), % of control 64.5.
Ang3 #3 scored GFP, % of control 90.4; viability (ATP), % of control 110.
For Wwp2 #1, the entry reads GFP, % of control 82.2; viability (ATP), % of control 62.1.
Wwp2 #2 gave GFP, % of control 105; viability (ATP), % of control 80.5.
Silencing of Wwp2 #3 resulted in: GFP, % of control 164 (active); viability (ATP), % of control 118.
Knock-down of Mtmr14 #1 gave: GFP, % of control 83.1; viability (ATP), % of control 47.9.
For Mtmr14 #2, the entry reads GFP, % of control 81.1; viability (ATP), % of control 69.1.
Knock-down of Mtmr14 #3 resulted in: GFP, % of control 57.5; viability (ATP), % of control 89.6.
Psg27 #1 scored GFP, % of control 37.7; viability (ATP), % of control 24.5.
After knock-down of Psg27 #2, the screen gave GFP, % of control 159 (active); viability (ATP), % of control 57.7.
Against Psg27 #3, the entry reads GFP, % of control 95.1; viability (ATP), % of control 111.

Records listed above called active:
Ipcef1 #3 | GFP, % of control: 147 (active); viability (ATP), % of control: 130
Parn #2 | GFP, % of control: 133 (active); viability (ATP), % of control: 88.1
Gulp1 #2 | GFP, % of control: 130 (active); viability (ATP), % of control: 126
Wwp2 #3 | GFP, % of control: 164 (active); viability (ATP), % of control: 118
Psg27 #2 | GFP, % of control: 159 (active); viability (ATP), % of control: 57.7
